The values below come from PMC5550436.

This assay addresses T1, MBP-tagged enzymatically inactive CCP2 mutant (H425S and E428Q) (mouse) (UniProt Q8CDK2).
T1 sequence: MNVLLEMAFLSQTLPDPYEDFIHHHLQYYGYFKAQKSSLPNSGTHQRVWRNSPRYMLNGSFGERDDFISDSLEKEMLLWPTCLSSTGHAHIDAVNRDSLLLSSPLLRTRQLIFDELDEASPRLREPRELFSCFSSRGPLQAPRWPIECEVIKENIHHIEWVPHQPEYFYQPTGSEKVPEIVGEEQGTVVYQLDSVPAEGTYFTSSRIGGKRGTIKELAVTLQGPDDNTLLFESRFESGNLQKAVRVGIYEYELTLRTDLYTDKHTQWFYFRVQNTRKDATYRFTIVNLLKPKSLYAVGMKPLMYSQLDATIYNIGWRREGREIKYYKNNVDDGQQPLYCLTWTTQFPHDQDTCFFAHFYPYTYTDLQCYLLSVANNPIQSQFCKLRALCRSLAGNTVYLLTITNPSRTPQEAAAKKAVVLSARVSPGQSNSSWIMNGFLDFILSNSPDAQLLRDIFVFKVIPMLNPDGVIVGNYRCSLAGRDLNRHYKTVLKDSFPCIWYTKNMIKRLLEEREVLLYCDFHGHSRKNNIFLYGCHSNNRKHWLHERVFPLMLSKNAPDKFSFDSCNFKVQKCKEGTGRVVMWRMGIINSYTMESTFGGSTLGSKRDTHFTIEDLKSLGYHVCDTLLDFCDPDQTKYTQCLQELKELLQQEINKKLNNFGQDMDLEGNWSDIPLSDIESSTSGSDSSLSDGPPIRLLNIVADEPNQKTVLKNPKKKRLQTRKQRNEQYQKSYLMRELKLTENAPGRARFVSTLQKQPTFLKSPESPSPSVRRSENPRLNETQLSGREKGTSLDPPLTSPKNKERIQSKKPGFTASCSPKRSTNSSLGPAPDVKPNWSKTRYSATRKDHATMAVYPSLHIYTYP
The experiment in a line: affinity purification with mass spectrometry; recombinant CCP2-wt and CCP2-mut immobilised on Affi-gel10 resin, BM lysates passed over (Ccp2-/- BM lysates by the legend); eluate on SDS-PAGE, silver staining; ~60 kD band cut, LC-LTQ MS/MS; only the target purified.

These are yes or no findings as the source states them, for the method shown. In cells and extracts the contact can be indirect. A yes stands for co-enrichment or nearness to the bait. Other partners may have been found. Sequences can lack the tags named with a protein.

B1: native IL-7Rα from mouse bone marrow lysates (receptor, UniProt P16872 21-459)
chain: ESGNAQDGDLEDADADDHSFWCHSQLEVDGSQHLLTCAFNDSDINTANLEFQICGALLRVKCLTLNKLQDIYFIKTSEFLLIGSSNICVKLGQKNLTCKNMAINTIVKAEAPSDLKVVYRKEANDFLVTFNAPHLKKKYLKKVKHDVAYRPARGESNWTHVSLFHTRTTIPQRKLRPKAMYEIKVRSIPHNDYFKGFWSEWSPSSTFETPEPKNQGGWDPVLPSVTILSLFSVFLLVILAHVLWKKRIKPVVWPSLPDHKKTLEQLCKKPKTSLNVSFNPESFLDCQIHEVKGVEARDEVESFLPNDLPAQPEELETQGHRAAVHSANRSPETSVSPPETVRRESPLRCLARNLSTCNAPPLLSSRSPDYRDGDRNRPPVYQDLLPNSGNTNVPVPVPQPLPFQSGILIPVSQRQPISTSSVLNQEEAYVTMSSFYQNK
As for B1, the binding result was “binds”.
